Counter-ions that a name gives are not always drawn. The list shows a part of the results. Single values are uncertain here, since repeats match poorly.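 PR50, a 50-repeat proline–arginine dipeptide protein from C9ORF72 (ALS/FTD), was expressed by transfection in U-2 OS human cells stably carrying a GFP sensor with import and classical export signals. Per-well nuclear-minus-cytoplasm GFP, normalized between in-plate DMSO (low) and PR-only (high), was scored versus other test wells; compounds well below zero were hits reversing PR.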

This passage reports Z-score results from the supplement of paper PMC8616043.

In the assay the test system is U-2 OS NCT-C biosensor cells expressing PR50. In words: Z-score of normalised NCT-C biosensor translocation index in PR50-expressing cells; higher = more nuclear biosensor (more disrupted nuclear export). Particulars: 3 µM; 24 h.
As for `Oc1cc(O)c2cc(O)c(-c3cc(O)c(O)c(O)c3)[o+]c2c1` [Delphinidin chloride], the Z-score is active: -2.26.
Next, `NS(=O)(=O)c1cc(C(=O)O)c(NCc2ccco2)cc1Cl` [Furosemide]: inactive: 0.203; `Cn1c(=O)c2[nH]c(C3CCCC3)nc2n(C)c1=O` [8-Cyclopentyl-1,3-dimethylxanthine]: inactive: -0.553.
As for `CC(C)COCC(CN(Cc1ccccc1)c1ccccc1)N1CCCC1` (configuration not stated) [Bepridil hydrochloride], the Z-score is inactive: 3.9.
Next, `NC(=O)c1ncn([C@@H]2O[C@H](CO)[C@@H](O)[C@H]2O)n1` [Ribavirin]: inactive: -0.352; `CCOC(=O)[C@H](CCc1ccccc1)N[C@@H](C)C(=O)N1[C@H](C(=O)O)C[C@@H]2CCC[C@@H]21` [Ramipril]: inactive: 0.0473.
In the case of `NS(=O)(=O)c1cc2c(cc1Cl)N=CNS2(=O)=O` [Chlorothiazide] it was inactive: -0.217.
Next, `O=C(COc1ccc(Cl)cc1)NC1CCC(NC(=O)COc2ccc(Cl)cc2)CC1` (configuration not stated): inactive: 2.75; `O=c1c(O)c(-c2ccc(O)c(O)c2)oc2cc(O)ccc12` [Fisetin]: inactive: 0.486.
For the compound `CNS(=O)(=O)Cc1ccc2[nH]cc(CCN(C)C)c2c1` [Sumatriptan Succinate], the Z-score is inactive: 0.256.
In the case of `CN[C@H](CC(C)C)C(=O)N[C@H]1C(=O)N[C@@H](CC(N)=O)C(=O)N[C@H]2C(=O)N[C@H]3C(=O)N[C@H](C(=O)N[C@H](C(=O)O)c4cc(O)cc(O)c4-c4cc3ccc4O)[C@H](O)c3ccc(c(Cl)c3)Oc3cc2cc(c3O[C@@H]2O[C@H](CO)[C@@H](O)[C@H](O)[C@H]2O[C@H]2C[C@](C)(N)[C@H](O)[C@H](C)O2)Oc2ccc(cc2Cl)[C@H]1O` [Vancomycin hydrochloride] it was inactive: -0.709; in that of `NC(=O)Cc1cccc(C(=O)c2ccccc2)c1N` [Nepafenac], inactive: -0.359.
Next, `C[C@H]1COC2=C1C(=O)C(=O)c1c2ccc2c1CCCC2(C)C` [Cryptotanshinone]: inactive: -0.556.
Next, `CC(=O)SCC[N+](C)(C)C` [Acetylthiocholine chloride]: inactive: 0.0554.
For `CCCCC1=NC2(CCCC2)C(=O)N1Cc1ccc(-c2ccccc2-c2nnn[nH]2)cc1` [Irbesartan], the Z-score is inactive: 1.22.
Next, `O=[N+]([O-])c1ccc2c(c1)S(=O)(=O)C=C2` [Stattic]: inactive: 1.55; `Nc1ccc(-c2ccc3ccccc3n2)cc1` [BF-170 hydrochloride]: inactive: -0.57; `CC[C@H]1OC(=O)[C@H](C)[C@@H](O[C@H]2C[C@@](C)(OC)[C@@H](O)[C@H](C)O2)[C@H](C)[C@@H](O[C@@H]2O[C@H](C)C[C@H](N(C)C)[C@H]2O)[C@](C)(OC)C[C@@H](C)C(=O)[C@H](C)[C@@H](O)[C@]1(C)O` [Clarithromycin]: inactive: 0.629.
Next, `CCCCC[C@H](O)/C=C/[C@H]1C=CC(=O)[C@@H]1CCCCCCC(=O)O` [Prostaglandin A1]: inactive: -0.153; `CC(C)NCC(O)c1ccc(NS(C)(=O)=O)cc1` (racemic) [(+-)-Sotalol hydrochloride]: inactive: -0.912.
Next, `N=C(N)NC(=O)c1nc(Cl)c(N)nc1N` [Amiloride hydrochloride]: inactive: -0.169; `N=C(N)NC(=O)c1nc(Cl)c(N)nc1N` [Amiloride·HCl·2H2O]: inactive: -1.18; `CCC(=O)N1CCOc2c(cc(-c3ccc(OC)c(OC)c3)cc2OC[C@H]2CCCN(C)C2)C1`: active: -2.33.
Take `O=C1N/C(=N\S(=O)(=O)c2cccc3ccccc23)S/C1=C\c1ccc(Br)cc1` [Pitstop 2]: the Z-score was inactive: 0.584.
Next, `COc1cccc(OC)c1OCCNCC1COc2ccccc2O1` (configuration not stated) [WB-4101  hydrochloride]: inactive: -1.16; `O=C1NCN(c2ccccc2)C12CCN(CCCC(c1ccc(F)cc1)c1ccc(F)cc1)CC2` [Fluspirilene]: inactive: -0.571.
Turning to `CC1(C)CC=C(c2ccccc2)c2cc(/C=C/c3ccc(C(=O)O)cc3)ccc21`, the Z-score is inactive: -0.54.
In the case of `Nc1ccccc1NC(=O)c1ccc(CNC(=O)OCc2cccnc2)cc1` [Entinostat (MS-275)] it was inactive: -1.55; in that of `NC(N)=NCc1cccc(I)c1` [m-Iodobenzyl guanidine hemisulfate], inactive: 0.596; in that of `COc1cc2c(cc1OC)C(=O)C(CC1CCN(Cc3ccccc3)CC1)C2` (configuration not stated) [Donepezil·HCl], inactive: 0.213.
Next, `CC(C)(C)c1ccc(CN2CCN(C(c3ccccc3)c3ccc(Cl)cc3)CC2)cc1` (configuration not stated) [Buclizine dihydrochloride]: inactive: -0.231; `N#CC(=C(/N)Sc1ccccc1N)/C(C#N)=C(/N)Sc1ccccc1N`: inactive: -0.389.
Next, `NS(=O)(=O)c1cccc2c1c([N+](=O)[O-])cc1nc(O)c(O)nc12` [NBQX disodium]: inactive: -0.45.
In the case of `COc1ccc(S(=O)(=O)Nc2nc(-c3cccc([N+](=O)[O-])c3)cs2)cc1OC`, the Z-score was inactive: -0.699.
In the case of `CNCC[C@H](Oc1cccc2ccccc12)c1cccs1` [Duloxetine·HCl] it was inactive: 0.0486; in that of `NC(=O)C(=O)O` [Sodium Oxamate], inactive: -0.018.
Next, `COCC1=C(C(=O)OC(C)OC(=O)OC(C)C)N2C(=O)[C@@H](NC(=O)/C(=N\OC)c3csc(N)n3)[C@H]2SC1` (some centres not stated) [Cefpodoxime Proxetil]: inactive: 0.316.
Next, `CN(C)c1cc2c(Nc3ccc4c(cnn4Cc4ccccc4)c3)ncnc2cn1`: inactive: -0.655; `C=C1C[C@@]23CC[C@H]4[C@@](C)(CCC[C@@]4(C)C(=O)O[C@@H]4O[C@H](CO)[C@@H](O)[C@H](O)[C@H]4O)[C@@H]2CC[C@]1(O[C@@H]1O[C@H](CO)[C@@H](O)[C@H](O)[C@H]1O[C@@H]1O[C@H](CO)[C@@H](O)[C@H](O)[C@H]1O)C3` [Stevioside]: inactive: 0.298.
Regarding `C=C1C(=O)[C@]23[C@H](CC[C@@H]1[C@@H]2O)[C@]12CO[C@@]3(O)[C@H](O)[C@H]1C(C)(C)CC[C@@H]2O` [Rubescensin A], the Z-score was inactive: -0.621.
In the case of `Cc1ccnc2c1NC(=O)c1cccnc1N2C1CC1` [Nevirapine] it was inactive: -0.61; in that of `CN(C)CCC=C1c2ccccc2CCc2ccccc21` [Amitriptyline hydrochloride], inactive: 0.207.
On to `CN(C)CCC=C1c2ccccc2CCc2ccccc21` [Amitriptyline·HCl], for which the Z-score is inactive: 0.0329.
In the case of `Cc1[nH]c(=O)c(C#N)cc1-c1ccncc1` [Milrinone], the Z-score is inactive: -0.421.
Next, `CS(=O)(=O)c1ccc(C2=C(c3ccccc3)C(=O)OC2)cc1` [Rofecoxib]: inactive: 1.17; `Cn1c(=O)c2[nH]cnc2n(C)c1=O` [Aminophylline ethylenediamine]: inactive: 0.0334.
In the case of `Cn1c(=O)c2[nH]cnc2n(C)c1=O` [Oxtriphylline] it was inactive: 0.0463; in that of `Cn1c(=O)c2[nH]cnc2n(C)c1=O` [Aminophylline], inactive: 2.64.
Next, `C=C[C@H]1CN2CC[C@H]1C[C@@H]2[C@@H](O)c1ccnc2ccc(OC)cc12` [Quinidine·HCl·H2O]: inactive: -0.54; `C=C[C@H]1CN2CC[C@H]1C[C@@H]2[C@@H](O)c1ccnc2ccc(OC)cc12` [Quinidine sulfate]: inactive: -0.161; `CNC(=O)[C@H]1O[C@@H](n2cnc3c(NCc4cccc(I)c4)ncnc32)[C@H](O)[C@@H]1O`: inactive: 0.819.
As for `O=C1CCC(N2C(=O)c3ccccc3C2=O)C(=O)N1` (racemic) [(+/-)-Thalidomide], the Z-score is inactive: -0.0463.
Next, `N=C(N)N` [Guanidine·HCl]: inactive: 0.311; `Cc1cccc(C)c1NC(=O)C1CCCCN1C` (configuration not stated) [Mepivacaine·HCl]: inactive: 0.0738.
In the case of `COc1cc(/C=C/C(=O)N2CCC=CC2=O)cc(OC)c1OC` [Piperlongumine] it was inactive: 1.04; in that of `CC(C)(S)[C@@H](N)C(=O)O` [Penicillamine (D-Penicillamine)], inactive: -0.582.
In the case of `Cc1cc(C(=O)NNCc2ccccc2)no1` [Isocarboxazid] it was inactive: 0.762; in that of `COc1ccc(-c2ccc(=N)n(CCCC(=O)O)n2)cc1`, inactive: -0.757.
As for `CO[C@H]1C[C@H](O[C@H]2[C@H](C)[C@@H](O[C@@H]3O[C@H](C)C[C@H](N(C)C)[C@H]3OC(C)=O)[C@@H](C)C[C@@]3(CO3)C(=O)[C@H](C)[C@@H](OC(C)=O)[C@@H](C)[C@@H](C)OC(=O)[C@@H]2C)O[C@@H](C)[C@@H]1OC(C)=O` [Troleandomycin], the Z-score is inactive: -0.478.
Consider `CSc1ccc(C(=O)c2[nH]c(=O)[nH]c2C)cc1` [Enoximone], for which the Z-score was inactive: 1.83.
Next, `S=C(Nc1ccccc1)Nc1nccs1` [1-Phenyl-3-(2- thiazolyl)-2- thiourea]: inactive: 0.275.
Regarding `CCCCCCCCCCC[C@@H](C[C@@H]1OC(=O)[C@H]1CCCCCC)OC(=O)[C@H](CC(C)C)NC=O` [Orlistat (Tetrahydrolipstatin)], the Z-score is inactive: -0.295.
Take `Cc1ccc(/C(=C\CN2CCCC2)c2cccc(/C=C/C(=O)O)n2)cc1` [Acrivastine]: the Z-score was inactive: 0.0958.
In the case of `CCCCCCCCCCCCCC/C(C(=O)O)=C(\C)C(=O)O` [Chaetomellic acid A] it was inactive: -0.402; in that of `CC(=O)NO` [Acetohydroxamic Acid], inactive: 0.428; in that of `N[C@@H](Cn1ccc(=O)c(O)c1)C(=O)O` [L-Mimosine from Koa hoale seeds], inactive: -0.0347.
For the compound `N[C@@H](Cn1ccc(=O)c(O)c1)C(=O)O` [L-Mimosine], the Z-score is inactive: -1.09.
